The supplement of paper PMC10849652
The list shows a part of the results.

Sequences of proteins named here, by UniProt entry; tags and fusion partners are left off. A change or cut given only in a name is not applied to a line headed by its entry.
UniProt Q14137: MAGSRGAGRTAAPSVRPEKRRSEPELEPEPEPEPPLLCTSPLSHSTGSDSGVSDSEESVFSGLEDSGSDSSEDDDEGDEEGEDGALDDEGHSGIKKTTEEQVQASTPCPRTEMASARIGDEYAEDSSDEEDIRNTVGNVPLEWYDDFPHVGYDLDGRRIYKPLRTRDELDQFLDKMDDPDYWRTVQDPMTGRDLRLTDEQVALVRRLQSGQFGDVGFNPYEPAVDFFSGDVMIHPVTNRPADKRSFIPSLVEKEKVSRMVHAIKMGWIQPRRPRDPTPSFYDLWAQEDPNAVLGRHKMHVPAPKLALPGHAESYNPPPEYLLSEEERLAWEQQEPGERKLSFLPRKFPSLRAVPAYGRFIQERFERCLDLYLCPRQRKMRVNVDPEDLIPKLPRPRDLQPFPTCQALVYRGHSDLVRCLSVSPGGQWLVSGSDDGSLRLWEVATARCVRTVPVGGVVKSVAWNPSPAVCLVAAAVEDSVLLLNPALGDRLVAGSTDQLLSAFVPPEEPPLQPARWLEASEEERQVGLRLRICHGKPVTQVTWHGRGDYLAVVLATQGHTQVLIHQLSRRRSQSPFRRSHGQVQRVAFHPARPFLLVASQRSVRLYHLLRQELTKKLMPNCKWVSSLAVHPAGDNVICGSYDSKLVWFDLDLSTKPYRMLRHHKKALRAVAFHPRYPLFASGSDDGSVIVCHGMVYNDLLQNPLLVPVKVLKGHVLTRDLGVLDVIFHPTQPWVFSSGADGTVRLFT
UniProt O00512: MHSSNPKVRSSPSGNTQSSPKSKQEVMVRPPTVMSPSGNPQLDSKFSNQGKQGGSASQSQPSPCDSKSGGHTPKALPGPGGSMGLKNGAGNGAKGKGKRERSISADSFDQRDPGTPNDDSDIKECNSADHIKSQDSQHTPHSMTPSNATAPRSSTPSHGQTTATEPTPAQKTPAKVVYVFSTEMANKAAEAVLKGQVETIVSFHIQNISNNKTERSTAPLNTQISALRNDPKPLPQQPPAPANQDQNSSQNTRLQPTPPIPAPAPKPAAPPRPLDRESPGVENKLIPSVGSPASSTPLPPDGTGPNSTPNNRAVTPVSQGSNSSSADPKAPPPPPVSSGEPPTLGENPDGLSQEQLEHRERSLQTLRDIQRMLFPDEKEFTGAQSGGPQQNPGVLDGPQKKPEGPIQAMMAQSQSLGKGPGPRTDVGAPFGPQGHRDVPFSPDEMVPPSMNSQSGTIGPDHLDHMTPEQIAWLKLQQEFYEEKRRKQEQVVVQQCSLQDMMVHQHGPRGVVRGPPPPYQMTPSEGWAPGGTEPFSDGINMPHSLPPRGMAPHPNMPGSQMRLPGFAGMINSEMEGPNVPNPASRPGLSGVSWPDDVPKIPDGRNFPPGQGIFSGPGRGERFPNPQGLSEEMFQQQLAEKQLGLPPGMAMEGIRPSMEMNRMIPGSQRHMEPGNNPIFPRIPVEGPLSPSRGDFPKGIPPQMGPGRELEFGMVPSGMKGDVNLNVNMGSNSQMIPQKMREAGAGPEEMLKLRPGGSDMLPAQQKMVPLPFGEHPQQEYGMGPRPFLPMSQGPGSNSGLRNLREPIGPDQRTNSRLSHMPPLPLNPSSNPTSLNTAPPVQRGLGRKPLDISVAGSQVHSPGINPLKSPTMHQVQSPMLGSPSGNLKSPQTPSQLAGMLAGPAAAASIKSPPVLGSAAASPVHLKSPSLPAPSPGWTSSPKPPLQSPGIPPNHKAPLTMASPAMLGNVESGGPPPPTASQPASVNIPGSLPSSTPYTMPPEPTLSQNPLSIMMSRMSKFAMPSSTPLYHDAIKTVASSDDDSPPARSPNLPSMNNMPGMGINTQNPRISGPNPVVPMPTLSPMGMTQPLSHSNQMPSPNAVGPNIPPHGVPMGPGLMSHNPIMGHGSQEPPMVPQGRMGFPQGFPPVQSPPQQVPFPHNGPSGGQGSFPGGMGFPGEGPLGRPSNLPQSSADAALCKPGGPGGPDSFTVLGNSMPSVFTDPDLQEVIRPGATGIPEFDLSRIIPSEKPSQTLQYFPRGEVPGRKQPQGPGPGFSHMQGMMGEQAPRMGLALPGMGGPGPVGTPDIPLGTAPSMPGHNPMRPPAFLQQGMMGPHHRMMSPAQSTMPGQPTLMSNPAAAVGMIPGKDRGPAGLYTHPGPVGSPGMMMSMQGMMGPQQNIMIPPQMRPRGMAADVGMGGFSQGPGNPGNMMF
UniProt Q9H0E9, whole entry, looked up: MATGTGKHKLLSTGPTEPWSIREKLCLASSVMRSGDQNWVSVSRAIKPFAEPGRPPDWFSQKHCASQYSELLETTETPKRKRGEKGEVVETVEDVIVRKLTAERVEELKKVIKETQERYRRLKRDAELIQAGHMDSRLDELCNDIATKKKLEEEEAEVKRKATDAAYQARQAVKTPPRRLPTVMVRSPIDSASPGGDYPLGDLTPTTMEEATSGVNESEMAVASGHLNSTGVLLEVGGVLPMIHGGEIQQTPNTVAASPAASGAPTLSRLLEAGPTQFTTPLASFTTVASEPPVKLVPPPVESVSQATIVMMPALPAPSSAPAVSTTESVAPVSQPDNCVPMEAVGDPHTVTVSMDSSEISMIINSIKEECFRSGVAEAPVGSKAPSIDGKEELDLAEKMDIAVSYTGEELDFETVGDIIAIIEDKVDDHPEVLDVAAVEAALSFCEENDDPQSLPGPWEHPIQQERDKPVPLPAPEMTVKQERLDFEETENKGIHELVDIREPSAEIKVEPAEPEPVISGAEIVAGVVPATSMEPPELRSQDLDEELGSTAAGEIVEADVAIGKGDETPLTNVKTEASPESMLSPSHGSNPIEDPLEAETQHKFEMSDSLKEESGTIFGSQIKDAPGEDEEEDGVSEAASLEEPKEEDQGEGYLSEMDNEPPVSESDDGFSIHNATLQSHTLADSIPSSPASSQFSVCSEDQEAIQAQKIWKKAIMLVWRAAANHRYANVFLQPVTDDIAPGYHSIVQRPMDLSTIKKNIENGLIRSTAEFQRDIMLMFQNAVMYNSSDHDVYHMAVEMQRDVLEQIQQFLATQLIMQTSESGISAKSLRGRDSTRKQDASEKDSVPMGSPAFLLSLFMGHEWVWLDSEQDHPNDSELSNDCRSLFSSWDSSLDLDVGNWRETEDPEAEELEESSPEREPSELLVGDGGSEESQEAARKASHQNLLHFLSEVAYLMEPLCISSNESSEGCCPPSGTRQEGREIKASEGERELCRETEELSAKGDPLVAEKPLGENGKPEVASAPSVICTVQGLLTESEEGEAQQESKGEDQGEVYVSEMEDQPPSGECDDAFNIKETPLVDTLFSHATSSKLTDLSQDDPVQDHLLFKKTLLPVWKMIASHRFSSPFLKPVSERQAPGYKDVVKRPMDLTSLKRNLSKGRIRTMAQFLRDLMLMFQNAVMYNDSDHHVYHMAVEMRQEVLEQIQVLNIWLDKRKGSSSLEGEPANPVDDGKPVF
UniProt O14965: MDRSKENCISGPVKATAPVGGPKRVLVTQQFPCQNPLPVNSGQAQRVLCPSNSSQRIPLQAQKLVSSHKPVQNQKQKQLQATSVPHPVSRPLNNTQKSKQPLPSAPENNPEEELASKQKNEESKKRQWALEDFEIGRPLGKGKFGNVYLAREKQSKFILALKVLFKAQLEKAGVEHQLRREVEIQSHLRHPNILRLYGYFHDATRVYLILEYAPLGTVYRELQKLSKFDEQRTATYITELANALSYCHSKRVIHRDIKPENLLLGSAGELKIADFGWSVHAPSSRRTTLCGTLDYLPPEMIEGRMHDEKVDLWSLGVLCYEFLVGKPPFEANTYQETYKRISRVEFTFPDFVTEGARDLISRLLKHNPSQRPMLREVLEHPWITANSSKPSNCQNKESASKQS
UniProt P11274: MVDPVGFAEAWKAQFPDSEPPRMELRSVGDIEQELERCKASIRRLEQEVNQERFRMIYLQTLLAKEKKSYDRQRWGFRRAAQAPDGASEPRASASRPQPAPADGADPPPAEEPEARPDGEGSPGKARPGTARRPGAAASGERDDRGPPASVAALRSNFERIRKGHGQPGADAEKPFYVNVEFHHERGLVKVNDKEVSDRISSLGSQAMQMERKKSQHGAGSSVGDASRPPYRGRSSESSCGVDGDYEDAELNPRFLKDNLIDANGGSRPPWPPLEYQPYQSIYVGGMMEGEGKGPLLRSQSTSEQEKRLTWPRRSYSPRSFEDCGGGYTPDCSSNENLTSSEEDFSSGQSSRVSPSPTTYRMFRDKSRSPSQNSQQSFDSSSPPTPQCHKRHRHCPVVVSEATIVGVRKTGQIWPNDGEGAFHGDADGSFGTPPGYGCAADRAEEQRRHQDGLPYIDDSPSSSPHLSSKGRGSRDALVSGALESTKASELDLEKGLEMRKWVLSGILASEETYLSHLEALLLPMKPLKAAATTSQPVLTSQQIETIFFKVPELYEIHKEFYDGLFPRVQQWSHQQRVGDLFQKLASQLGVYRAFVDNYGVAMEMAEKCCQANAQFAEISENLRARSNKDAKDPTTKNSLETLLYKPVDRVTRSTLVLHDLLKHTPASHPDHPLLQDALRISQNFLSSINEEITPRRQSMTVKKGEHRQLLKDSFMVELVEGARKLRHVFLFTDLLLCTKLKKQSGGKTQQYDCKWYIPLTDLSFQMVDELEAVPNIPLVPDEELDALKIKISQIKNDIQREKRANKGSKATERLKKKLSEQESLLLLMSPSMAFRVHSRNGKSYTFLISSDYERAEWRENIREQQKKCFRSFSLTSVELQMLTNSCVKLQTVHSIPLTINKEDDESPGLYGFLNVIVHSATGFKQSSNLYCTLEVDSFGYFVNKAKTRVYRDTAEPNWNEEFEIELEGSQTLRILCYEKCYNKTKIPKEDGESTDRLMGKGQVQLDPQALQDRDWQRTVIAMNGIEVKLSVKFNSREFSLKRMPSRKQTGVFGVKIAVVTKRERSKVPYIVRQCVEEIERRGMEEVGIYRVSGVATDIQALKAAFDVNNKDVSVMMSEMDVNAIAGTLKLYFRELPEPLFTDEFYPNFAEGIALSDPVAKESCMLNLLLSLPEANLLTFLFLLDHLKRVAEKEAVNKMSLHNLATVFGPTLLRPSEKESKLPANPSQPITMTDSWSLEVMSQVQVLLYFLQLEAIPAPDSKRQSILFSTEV
UniProt P54132: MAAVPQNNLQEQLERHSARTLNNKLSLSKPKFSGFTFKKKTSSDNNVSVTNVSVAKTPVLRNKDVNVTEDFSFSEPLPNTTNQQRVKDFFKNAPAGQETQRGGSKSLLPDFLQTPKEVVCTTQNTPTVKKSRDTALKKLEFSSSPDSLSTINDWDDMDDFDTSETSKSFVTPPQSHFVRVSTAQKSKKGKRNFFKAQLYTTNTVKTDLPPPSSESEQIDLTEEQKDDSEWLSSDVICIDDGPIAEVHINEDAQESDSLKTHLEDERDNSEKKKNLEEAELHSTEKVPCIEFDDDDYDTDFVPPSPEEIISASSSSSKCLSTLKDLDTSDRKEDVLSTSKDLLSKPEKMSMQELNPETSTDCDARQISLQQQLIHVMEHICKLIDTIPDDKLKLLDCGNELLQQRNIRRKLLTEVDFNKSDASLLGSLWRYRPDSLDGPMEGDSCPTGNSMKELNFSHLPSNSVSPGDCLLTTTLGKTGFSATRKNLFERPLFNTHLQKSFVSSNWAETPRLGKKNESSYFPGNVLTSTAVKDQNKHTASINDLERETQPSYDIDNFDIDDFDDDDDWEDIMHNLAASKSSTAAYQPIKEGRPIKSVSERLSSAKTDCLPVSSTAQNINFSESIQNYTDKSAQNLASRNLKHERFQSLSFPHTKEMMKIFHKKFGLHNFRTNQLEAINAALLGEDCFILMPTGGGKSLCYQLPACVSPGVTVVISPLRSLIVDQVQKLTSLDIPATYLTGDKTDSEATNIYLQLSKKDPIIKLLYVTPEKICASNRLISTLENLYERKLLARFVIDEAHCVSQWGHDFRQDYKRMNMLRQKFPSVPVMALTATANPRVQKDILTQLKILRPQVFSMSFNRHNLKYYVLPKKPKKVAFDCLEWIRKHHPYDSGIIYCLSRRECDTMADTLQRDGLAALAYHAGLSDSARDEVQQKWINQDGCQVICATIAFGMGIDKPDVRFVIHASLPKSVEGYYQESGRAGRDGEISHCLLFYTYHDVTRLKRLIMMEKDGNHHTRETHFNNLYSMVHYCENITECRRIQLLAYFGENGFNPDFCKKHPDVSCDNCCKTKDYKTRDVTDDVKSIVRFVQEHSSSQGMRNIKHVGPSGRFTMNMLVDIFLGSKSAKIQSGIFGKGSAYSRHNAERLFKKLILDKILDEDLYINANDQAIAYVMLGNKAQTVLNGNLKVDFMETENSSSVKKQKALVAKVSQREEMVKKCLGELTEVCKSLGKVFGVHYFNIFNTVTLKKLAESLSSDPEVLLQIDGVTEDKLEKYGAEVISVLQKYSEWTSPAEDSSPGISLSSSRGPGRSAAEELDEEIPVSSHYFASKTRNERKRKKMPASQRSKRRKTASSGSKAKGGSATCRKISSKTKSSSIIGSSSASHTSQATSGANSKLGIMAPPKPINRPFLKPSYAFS

Tests used:
Assay in all cases: log2 fold change, soluble protein after heating vs DMSO (PISA); higher = thermal stabilisation; K562 cells, 10 uM, 30 min; active = over 0.2 and 3.5 SD of the protein, either way, in both replicates (recomputed)
[1] = compound: CC[C@@H]1C(=O)N(C)c2cnc(Nc3ccc(C(=O)NC4CCN(C)CC4)cc3OC)nc2N1C1CCCC1
Procedure, shortened: (§1)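 Thermal stability values are relative to control samples and come from duplicates. They are expressed as log2 fold changes. For measurement, K562 cells (2×10^6 cells/mL) received 10 μM compound for 30 min, and aliquots were heated for 3 min over 48°C-58°C, pooled, and extracted at 4°C in PBS with 0.5% NP-40. Soluble protein, the supernatant after 21,000xg for 90 min, was quantified by TMTpro 16plex LC-MS/MS with equalised channel sums.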

volasertib = compound: CC[C@@H]1C(=O)N(C)c2cnc(Nc3ccc(C(=O)N[C@H]4CC[C@H](N5CCN(CC6CC6)CC5)CC4)cc3OC)nc2N1C(C)C [volasertib]
Procedure, shortened: as §1

[2] = compound: CC[C@H](C)N1C=C(C2=C(C=C(C=C21)C3=CN=C(C=C3)N4CCNCC4)C(=O)NCC5=C(C=C(NC5=O)C)C)C
Procedure, shortened: as §1

epoxomicin = compound: CC[C@H](C)[C@@H](C(=O)N[C@@H]([C@@H](C)O)C(=O)N[C@@H](CC(C)C)C(=O)[C@]1(CO1)C)NC(=O)[C@H]([C@@H](C)CC)N(C)C(=O)C [epoxomicin]
Procedure, shortened: as §1

[3] = compound: CCn1c(C(=O)N(C2CC2)C2CC2)cc2c3c(ncn3C)c(Nc3cc(C)n(C)n3)nc21
Procedure, shortened: as §1

[4] = compound: CCn1cc(-c2ccnc3[nH]c(-c4cccc(CN(C)C)c4)cc23)c(-c2ccc(NC(=O)N(C)C)cc2)n1
Procedure, shortened: as §1

[5] = compound: CN(C)CC(=O)Nc1ccc2[nH]c(=O)c3ccccc3c2c1
Procedure, shortened: as §1

rosiglitazone = compound: CN(CCOC1=CC=C(C=C1)C[C@H]2C(=O)NC(=O)S2)C3=CC=CC=N3 (racemic) [rosiglitazone]
Procedure, shortened: as §1

[6] = compound: CN1C2=C(C3=C1C(=O)N(N=C3)CC4=CC(=CC=C4)N)SC(=C2)S(=O)C
Procedure, shortened: as §1

[7] = compound: CN1CCC(CNc2ccc3ncc(-c4cccc(OC(F)(F)F)c4)n3n2)CC1
Procedure, shortened: as §1

Measured: log2 fold change

BOD1L1 (UniProt Q8NFC6)
inactive: [1] 0.101 | volasertib 0.082 | [2] 0.038 | epoxomicin -0.061 | [3] -0.008 | [4] 0.055 | [5] -0.04 | rosiglitazone 0.01 | [6] 0.081 | [7] 0.045

BROX (UniProt Q5VW32)
inactive: [1] -0.075 | volasertib -0.21 | [2] 0.056 | epoxomicin 0.236 | [3] 0.03 | [4] -0.079 | [5] 0.048 | rosiglitazone 0.028 | [6] -0.071 | [7] 0.002

B2M (UniProt P61769)
inactive: [1] 0.05 | volasertib 0.006 | [2] -0.016 | epoxomicin -0.026 | [3] 0.036 | [4] -0.017 | [5] -0.049 | rosiglitazone -0.036 | [6] -0.059 | [7] 0.153

BCKDK (UniProt O14874)
inactive: [1] 0.087 | volasertib 0.074 | [2] -0.032 | epoxomicin 0.002 | [3] -0.036 | [4] 0.07 | [5] -0.049 | rosiglitazone -0.188 | [6] 0.016 | [7] -0.094

BOP1 (UniProt Q14137)
inactive: [1] -0.072 | volasertib -0.328 | [2] 0.019 | epoxomicin 0.002 | [4] -0.075 | [5] 0.009 | [6] 0.228 | [7] 0.141

BCL2L2 isoform 2 (UniProt Q92843)
inactive: [1] 0.15 | volasertib 0.011 | [2] -0.03 | epoxomicin -0.105 | [3] -0.021 | [4] 0.131 | [5] -0.027 | rosiglitazone -0.036 | [6] 0.111 | [7] 0.133

BCL9 (UniProt O00512)
inactive: [1] -0.112 | volasertib -0.034 | epoxomicin 0.145 | [3] -0.099 | [4] -0.105 | [5] -0.31 | [6] 0.011 | [7] 0

ATXN2L (UniProt H3BUF6)
inactive: [1] 0.01 | volasertib -0.075 | [2] -0.009 | [4] -0.077 | rosiglitazone 0.046 | [7] 0.214

BRD8 isoform 2 (UniProt Q9H0E9)
inactive: [1] 0.036 | volasertib 0.025 | epoxomicin -0.105 | [4] 0.219 | [6] 0.087 | [7] -0.327
active: [5] 0.432

B4GALT7 (UniProt Q9UBV7)
inactive: [1] 0.067 | volasertib -0.085 | epoxomicin 0.051 | [3] -0.064 | [4] -0.035 | [5] -0.06 | rosiglitazone 0.053 | [6] -0.117 | [7] -0.23

BRD8 (UniProt Q9H0E9)
inactive: [1] 0.038 | volasertib -0.044 | [2] -0.013 | epoxomicin 0.039 | [4] 0.043 | [5] -0.044 | [6] 0.025 | [7] -0.063

Reprinted from the listing (two entries):
BRD8 isoform 2 (UniProt Q9H0E9)
inactive: [1] 0.036 | volasertib 0.025 | epoxomicin -0.105 | [4] 0.219 | [6] 0.087 | [7] -0.327
active: [5] 0.432

B4GALT7 (UniProt Q9UBV7)
inactive: [1] 0.067 | volasertib -0.085 | epoxomicin 0.051 | [3] -0.064 | [4] -0.035 | [5] -0.06 | rosiglitazone 0.053 | [6] -0.117 | [7] -0.23

The list continues:

AURKA (UniProt O14965)
inactive: [1] 0.017 | volasertib 0.134 | [2] -0.022 | epoxomicin 0.113 | [5] 0 | [6] 0.029 | [7] 0.14
active: [4] 0.733

BCR (UniProt P11274)
inactive: [1] 0.095 | volasertib -0.518 | epoxomicin -0.235 | [3] 0.008 | [4] -0.021 | rosiglitazone -0.079 | [6] 0.401 | [7] 0.07

BLM (UniProt P54132)
inactive: [1] 0.064 | volasertib -0.199 | [2] 0.027 | [3] -0.007 | [5] 0.066 | rosiglitazone 0.085 | [6] 0.064
